PubChem BioAssay AID2685 (National Center for Advancing Translational Sciences (NCATS), 2010)
About 2,100 (0.66%) of roughly 320,000 compounds were called active. This list was built around the results that the source calls inconclusive (neither active nor inactive); the mix of calls is not that of the screen. Calls come from the whole dose curve; as a rule, active = well fitted inhibition curve with a large enough effect in the signal ratio, with a control signal flat (not every such curve was filed as active); inconclusive = small, poorly fitted or top-dose-only effect, or effect the other way, or a change in a side signal; inactive = flat fitted curve, though single readings scatter; the % refers to the signal ratio. Potencies beside an inconclusive call are fits to weak or partial responses and may not hold up.
% is set by controls: 0 for no effect and ±100 for the full control effect; potency is the fitted concentration of half-maximal effect.

Assay: qHTS Assay for Lipid Storage Modulators in Drosophila S3 Cells
Conditions: BODIPY lipid droplet fluorescence, 18-24 h, cells fed with added oleic acid; lipid storage change, negative = inhibition: at 46.1 µM (top of the series) unless noted
How it was run: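 Laser-scanning cytometry quantifies lipid droplet accumulation (500–530 nm total intensity; droplet/cell object ratio) in oleic acid-fed (400 uM added) Drosophila S3 cells treated with a concentration series. 20 uM Triacsin C defined 100% inhibition.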
With O=C(NCCc1ccccc1)c1cc(=O)[nH]c2ccccc12 the Potency was inconclusive: 6.51 µM [activator, single point]. In the case of CC(=O)NCc1ccc(S(=O)(=O)N/N=C/c2ccccc2)cc1, the lipid storage change, negative = inhibition is reported as inconclusive: 10.7%. With COc1ccc(C(C)=O)cc1CSc1nnc2c(Cl)cc(Cl)cn12 the Potency was inconclusive: 18.4 µM [activator, partial curve, poor fit]. With CC(C)(C)C(=O)Nc1ccnn1C1CCN(C(=O)c2ccc(Cl)cc2F)CC1 the Potency was inconclusive: 16.4 µM [falling, partial curve, poor fit]. With C=CCNC(=S)NNc1nc(Nc2ccccc2)nc(N2CCCCC2)n1 the Potency was inconclusive: 0.146 µM [falling, full curve, poor fit]. In the case of CC(=O)c1cccc(NC(=O)CC2S/C(=N/N=C3CCCCCC3)NC2=O)c1 (centres undefined), the Potency is reported as inconclusive: 1.84 µM [falling, partial curve]. With CCOC(=O)N1CCN(S(=O)(=O)c2ccc(C(=O)Nc3sc4c(c3C(N)=O)CCN(CC)C4)cc2)CC1 the Potency was inconclusive: 11.6 µM [activator, partial curve]. For CN=C1S/C(=C\c2ccc(OCC(=O)OC)c(OC)c2)C(=O)N1C, the lipid storage change, negative = inhibition was inconclusive: -81.7%. For CC(C)NCC(O)COCCOc1ccc(Br)cc1 (centres undefined), the lipid storage change, negative = inhibition was “inactive”. With O=C(CN1CCCCC1)Nc1c2c(nc3ccccc13)N(c1ccccc1)CC2 the lipid storage change, negative = inhibition was inconclusive: -10.5%. With Cn1c(CSCc2ccccc2)nnc1SCC(=O)Nc1nccs1 the lipid storage change, negative = inhibition was inconclusive: -24.7%. In the case of CCn1c(C)cc2c(c1=O)C(c1ccncc1)C(C#N)=C(N)O2 (centres undefined), the Potency is reported as inconclusive: 0.731 µM [falling, full curve, poor fit]. In the case of CCOC(=O)NC(=O)CSc1nnnn1-c1ccccc1, the lipid storage change, negative = inhibition is reported as inconclusive: 53.9%. With O=C(COC(=O)/C=C/c1ccccc1Cl)NCCc1ccc(Cl)cc1Cl the lipid storage change, negative = inhibition was inconclusive: -24.2%. For O=C(NCc1cccc(CNC(=O)c2ccco2)c1)c1ccco1, the Potency was inconclusive: 6.51 µM [activator, partial curve, poor fit]. With COc1ccc(CN2C(=O)C(Cc3ccccc3)Nc3ncnc(N4CCOCC4)c32)cc1 (centres undefined) the lipid storage change, negative = inhibition was inconclusive: 23%. In the case of O=C(COC(=O)/C=C/c1ccccc1[N+](=O)[O-])Nc1ccc(OC(F)F)cc1, the lipid storage change, negative = inhibition is reported as inconclusive: 1.71%. For CC(=O)N/C(=C\c1ccccc1)C(=O)Nc1ccccc1C, the lipid storage change, negative = inhibition was inconclusive: -3.73%. For Cc1ccccc1N1C(=O)CC1(C#N)c1ccc(OCc2ccccc2)cc1 (centres undefined), the lipid storage change, negative = inhibition was inconclusive: -145%. For OCCC1CN(Cc2cccn2-c2nccs2)CCN1Cc1ccccc1 (centres undefined), the lipid storage change, negative = inhibition was inconclusive: 45.8%. With N#CC/C(N)=N/Nc1nc2ccccc2nc1Cc1ccccc1 the lipid storage change, negative = inhibition was inconclusive: -25.5%. With O=C(Nc1cccc(Cl)c1)N1CCOCC1 the Potency was inconclusive: 0.184 µM [falling, partial curve, poor fit]. With C=C(C)CSc1nc(N)c2c(C)c(C)sc2n1 the Potency was inconclusive: 0.058 µM [rising, full curve]. For Nc1nc(SCC(=O)N2CCOCC2)n[nH]1, the Potency was inconclusive: 32.6 µM [falling, single point]. With O=C1NC(=O)C2C3c4ccccc4C(c4ccccc43)C12 (centres undefined) the lipid storage change, negative = inhibition was inconclusive: 33.3%. In the case of CCOC(=O)Nc1ccc(=O)n(Cc2c(Cl)cccc2Cl)c1, the lipid storage change, negative = inhibition is reported as inconclusive: 13.6%. With CCc1ccc(NC(=O)Cc2cn(C)c3ccccc23)cc1 the lipid storage change, negative = inhibition was inconclusive: -9.21%. With CN(C)C(CNC(=O)C1CCN(S(=O)(=O)c2cccc(Cl)c2Cl)CC1)c1ccccc1 (centres undefined) the Potency was inconclusive: 18.4 µM [activator, single point]. For CCN(C(=O)CSc1nnc(Cc2ccccc2F)n1N)C1CCS(=O)(=O)C1 (centres undefined), the Potency was active: 8.2 µM. For CC(C)CCC1(CCNC(C)c2cccs2)CCOC(C)(C)C1 (centres undefined), the lipid storage change, negative = inhibition was inconclusive: -4.59%. With COc1cc2cc(Oc3ccc4ccc(=O)oc4c3)c(=O)oc2cc1OC(=O)C=C(C)C the lipid storage change, negative = inhibition was inconclusive: 11.4%. With CCOCCn1ccc2c(OCC(=O)Nc3ccccc3OC)cccc2c1=O the lipid storage change, negative = inhibition was “inconclusive”. In the case of COc1cc(C2/C(=C(\O)c3ccc4c(c3)OCCO4)C(=O)C(=O)N2c2nnc(C)s2)cc(OC)c1OC (centres undefined), the Potency is reported as inconclusive: 13 µM [activator, partial curve, poor fit]. In the case of CC(C)(C)C(=O)/C=c1\s/c(=C\c2ccc(-c3ccc([N+](=O)[O-])cc3)o2)c(=O)n1CC(=O)NC(N)=O, the Potency is reported as active: 1.03 µM. For COc1ccc(NC(=O)Cn2nc(C)c3ccccc3c2=O)cc1, the lipid storage change, negative = inhibition was inconclusive: 93.5%. For Cc1ccc(C)c(OCC(=O)N2CCOCC2)c1, the lipid storage change, negative = inhibition was inconclusive: 19.1%. In the case of CCCCC(CC)C(=O)Nc1cc(C(=O)NCCC)ccc1N1CCC2(CC1)CC(c1cccc(Br)c1)=NO2 (centres undefined), the lipid storage change, negative = inhibition is reported as inconclusive: 3.87%. In the case of CC(C)CNC(=O)c1ccccc1NC(=O)CCSc1ccccc1, the lipid storage change, negative = inhibition is reported as inconclusive: 23.1%. For COCCn1ccc2c(OCC(=O)NCCc3ccc(OC)c(OC)c3)cccc2c1=O, the lipid storage change, negative = inhibition was inconclusive: 14.7%. With CCO[C@@H]1OC(C(=O)N2CCN(Cc3ccccc3)CC2)=C[C@H](c2cn(C(C)=O)c3ccccc23)[C@H]1CCCO the Potency was inconclusive: 0.92 µM [falling, full curve, poor fit]. For Cc1noc(C)c1S(=O)(=O)N1CCCCC1, the lipid storage change, negative = inhibition was inconclusive: 1.74%. In the case of CCc1nnc(NC(=O)c2cccc(S(=O)(=O)N3CCN(C(C)=O)CC3)c2)s1, the lipid storage change, negative = inhibition is reported as inconclusive: 9.45%. For O=C(C1Cc2ccccc2CN1S(=O)(=O)c1ccc(F)cc1)N1CCCCC1 (centres undefined), the Potency was inconclusive: 20.6 µM [activator, single point]. In the case of Cc1ccc(NC(=O)C2CC(=O)N(Cc3ccccc3)C2)nc1 (centres undefined), the lipid storage change, negative = inhibition is reported as “inconclusive”. In the case of Cc1nc(C(=O)NCc2ccccc2)sc1C1(C)CC(c2cccc([N+](=O)[O-])c2)=NO1 (centres undefined), the lipid storage change, negative = inhibition is reported as inconclusive: 32.8%. For COc1ccc(-c2nnc(SCC(=O)N(C)C3CCS(=O)(=O)C3)n2N)cc1OC (centres undefined), the lipid storage change, negative = inhibition was inconclusive: -30.4%. For COc1ccc(N2CCN(c3nc4ccccc4n3CC(=O)c3ccccc3)CC2)cc1, the Potency was inconclusive: 3.26 µM [activator, full curve]. With O=C(Nc1ccc(F)c(Cl)c1)Nc1cnccn1 the lipid storage change, negative = inhibition was inconclusive: -7.37%. For Cc1ccc(-c2nc(C(=O)NCCCN3CCOCC3)cc3c2[nH]c2ccccc23)cc1, the Potency was inconclusive: 18.4 µM [falling, single point]. With O=S(=O)(c1ccc(=S)[nH]c1)N1CCCCCC1 the Potency was inconclusive: 23.1 µM [activator, single point]. For COC(=O)c1c(C(=O)NCc2ccccc2)ncn1CC(O)COc1ccccc1 (centres undefined), the lipid storage change, negative = inhibition was inconclusive: 109%. With COc1ccc(C(=O)NNC(=O)Cn2nnc(-c3ccc(OC)c(OC)c3)n2)cc1 the Potency was inconclusive: 0.231 µM [cytotoxic, full curve]. In the case of CCn1c(SCC(=O)C(C)(C)C)nnc1-c1ccccc1OC, the Potency is reported as inconclusive: 6.51 µM [falling, single point]. In the case of Cc1ccc(S(=O)(=O)NC(=O)NCCCCNC(=O)NS(=O)(=O)c2ccc(C)cc2)cc1, the lipid storage change, negative = inhibition is reported as inconclusive: -9.78%. In the case of COc1c2ccoc2c(OC[C@@H](O)C(C)(C)O)c2oc(=O)ccc12, the lipid storage change, negative = inhibition is reported as inconclusive: 20.7%. For CN(CC(=O)NCCCc1ccccc1)S(=O)(=O)c1ccc(Br)cc1, the lipid storage change, negative = inhibition was inconclusive: -29.3%. With CCOc1ccccc1NC(=O)NNS(=O)(=O)c1ccc([N+](=O)[O-])cc1 the Potency was inconclusive: 29.1 µM [activator, single point]. In the case of CC(=O)N1N=C(c2c(-c3ccccc3)c3cc(Br)ccc3[nH]c2=O)CC1c1ccco1 (centres undefined), the lipid storage change, negative = inhibition is reported as inconclusive: -2.76%. With Cc1cc(=O)n2nc(-c3ccc(C(F)(F)F)cc3)sc2n1 the Potency was inconclusive: 1.84 µM [rising, partial curve, poor fit]. In the case of Cc1[nH][nH]c(=O)c1C(c1ccc(-c2ccc(F)cc2)o1)c1c(C)[nH][nH]c1=O, the lipid storage change, negative = inhibition is reported as inconclusive: -21.6%. In the case of CC(C)c1ccc2c(c1)C1Cc3ccccc3C1N2 (centres undefined), the Potency is reported as active: 9.2 µM. For CCOc1ccc(S(=O)(=O)N2CCC(C(=O)N3CCc4ccccc4C3)CC2)cc1, the Potency was active: 7.31 µM. With Cc1cc(C)n2nc(SCC(=O)c3c(N)n(CC(C)C)c(=O)n(C)c3=O)nc2n1 the lipid storage change, negative = inhibition was inconclusive: -32.7%. For O=C(NCc1ccccc1)c1ccc2c(c1)OCCO2, the lipid storage change, negative = inhibition was inconclusive: -21.4%. With CCSc1ccccc1C(=O)NCCc1ccccc1 the lipid storage change, negative = inhibition was inconclusive: -2.45%. In the case of CC(Cc1ccccn1)NC(=O)c1ccc(OC2CCN(Cc3ccccn3)CC2)cc1 (centres undefined), the Potency is reported as inconclusive: 10.3 µM [falling, partial curve, poor fit]. With NC(N)=N/N=C/c1cccc(Cl)c1Cl the Potency was inconclusive: 0.731 µM [rising, single point]. For CC(C)CC(=O)N1CCN(Cc2ccc(C(F)(F)F)cc2)CC1, the lipid storage change, negative = inhibition was inconclusive: -30.9%. For CCN(C(=O)CSc1nnc(C)n1-c1cccc(C)c1)C1CCS(=O)(=O)C1 (centres undefined), the lipid storage change, negative = inhibition was inconclusive: 16.8%. In the case of CCN(CC)S(=O)(=O)c1ccc(NC(=O)c2ccc(CN3CCOCC3)cc2)cc1, the lipid storage change, negative = inhibition is reported as inconclusive: -6.36%. In the case of COc1ccc(CNC(=O)c2ccc3ccccc3n2)cc1OC, the lipid storage change, negative = inhibition is reported as inconclusive: 112%. For O=C(CS(=O)(=O)Cc1ccccc1)Nc1ccc(S(=O)(=O)N2CCCCCC2)cc1, the lipid storage change, negative = inhibition was inconclusive: 22.6%. For O=C(NCCN1C(=O)S/C(=C\c2ccc(OC(F)F)cc2)C1=O)[C@@H]1CCCN1C(=O)c1cccs1, the Potency was inconclusive: 20.6 µM [falling, single point]. In the case of NS(=O)(=O)c1ccc(NC(=O)CN2CCCC2)cc1, the lipid storage change, negative = inhibition is reported as inconclusive: -5.48%.
